Measurements taken from publication PMC8506967, “Binding specificity and function of the SWI/SNF subunit SMARCA4 bromodomain interaction with acetylated histone H3K14” (The Journal of Biological Chemistry, 2021).
These are yes or no findings as the source states them, for the method shown. Sequences can lack the tags named with a protein.

Molecular target: histone H3_(7–20)K14ac peptide (UniProt P68431)
Assay: condition: protein 50–100 μM in the cell, peptide 500–1000 μM in the syringe; ITC; MicroCal Auto-iTC200, 293 or 298 K, 10 mM HEPES, 100 mM NaCl, 2.5% glycerol, pH 7.3; protein 50–100 μM in the cell, peptide 500–1000 μM in the syringe; single-site binding model; both purified

binding	Binder
no binding	CeSMARCA4 BD Tyr1220Ala (domain or fragment, UniProt G5EF53 1179-1289) DPELAEKINEMLDVILEYKNEDGELIADVFQTLPTRKELPDAYQVISKPMDFDRINKKIETGRYTVMEELNDDMNLLVNNAQTYNEEGSEIYVSSETIGKLWKEQYDKFMN
no binding	CeSMARCA4 BD Asn1263Ala (domain or fragment, UniProt G5EF53 1179-1289) DPELAEKINEMLDVILEYKNEDGELIADVFQTLPTRKELPDYYQVISKPMDFDRINKKIETGRYTVMEELNDDMNLLVNNAQTYAEEGSEIYVSSETIGKLWKEQYDKFMN
